PubChem BioAssay AID651640 (Broad Institute, 2012)
About 6,000 (1.7%) of roughly 350,000 compounds were called active. Inconclusive results, whose numbers are uncertain, are shown with a selection of clear calls. Rule as the data show it: active = CPE inhibition above about 20% (passing the limit was not always enough); inconclusive = no clear call, values can overlap the other calls; tested in BHK-21 cells.

Test: protection of cells from dengue 2 killing – plate reader, single concentration, primary screen (AID 651640);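 also: 0% = median of neutral control wells and 100% = median of positive control wells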
Details: DENV2-infected cells, cytopathic effect rescue, at 9.99 µM, hits give high values

| Compound | CPE inhibition |
| --- | --- |
| N#Cc1ccc(-c2ccc([C@H]3[C@H](CO)N4C(=O)CN(C(=O)Cc5ccccc5)C[C@@H]34)cc2)cc1 | inconclusive: 21.6% |
| CC(NC(=O)CN1CCCC1)c1ccccc1 (stereo not drawn) | active: 23.6% |
| O=S(=O)(Cc1ccccc1)N1CCn2c(nc3ccccc32)C1 | inconclusive: 27.8% |
| C[C@@H]1CN([C@H](C)CO)C(=O)c2cc(NS(=O)(=O)c3ccc(Cl)cc3)ccc2O[C@@H](C)CCCCO[C@@H]1CN(C)Cc1ccc2c(c1)OCO2 | inconclusive: 50.1% |
| CC=Cc1ccc2n(c1=O)C[C@H]1[C@H](CO)[C@@H](C(=O)NC3CCCC3)[C@@H]2N1Cc1ccncc1 (mixture of isomers) | inactive: 9.88% |
| CCC(=O)Nc1cccc(-c2cc3ccccc3oc2=O)c1 | active: 29.9% |
| CC(C)CC#Cc1ccc([C@@H]2[C@H]3CN(C(=O)c4cnccn4)CC(=O)N3[C@H]2CO)cc1 | inconclusive: 33% |
| O=S(=O)(c1cccc2cccnc12)N1CCN(Cc2ccc(OCCO)cc2)CC1 | active: 41.2% |
| COCCN1C(=O)c2ccccc2C1c1nc2ccccc2[nH]1 (stereo not drawn) | inconclusive: 26% |
| CO[C@@H]1CC[C@@H]2CCOc3c(C#N)cccc3C(=O)N(C)C[C@@H](OC)[C@@H](C)C(=O)N(C)C[C@@H]1O2 | inactive: -1.52% |
| Cc1noc(C)c1NC(=O)N(C)C[C@H]1OCCCC[C@H](C)Oc2ccc(NS(C)(=O)=O)cc2C(=O)N([C@H](C)CO)C[C@@H]1C | inconclusive: 23.1% |
| O=c1[nH]c(=S)n2c(c1-c1ccccc1)OC(CBr)C2 (stereo not drawn) | inconclusive: 20.4% |
| O=C(CN1CCOCC1)N1CCCCN2[C@@H](CO)[C@H](c3ccc(-c4ccccc4)cc3)[C@@H]2C1 | inactive: -4.15% |
| N/C(Cc1ccc(Cl)c(Cl)c1)=N\OC(=O)c1ccc(Br)o1 | inconclusive: 51.4% |
| COC(=O)C1=C(C)N(Cc2ccccc2)C(=S)NC1c1cccc(OC)c1 (stereo not drawn) | inactive: -8.48% |
| N=c1sccn1CC(=O)Nc1cc(S(=O)(=O)N2CCCCC2)ccc1Cl | inconclusive: 26.6% |
| CN(CC(=O)Nc1ccccc1Cl)C(=O)COc1cccc2c1OC(C)(C)C2 | inconclusive: 39.2% |
| O=C(NCC[C@@H]1CC[C@H](NC(=O)c2ccc3c(c2)OCO3)[C@H](CO)O1)Nc1cc(F)ccc1F | inconclusive: 27% |
| Cc1ccc(NC(=O)CCN2C(=O)c3cccc([N+](=O)[O-])c3C2=O)c(Br)c1 | inconclusive: 21.1% |
| O=C(C[C@@H]1C=C[C@H](NC(=O)c2ccccc2)[C@@H](CO)O1)NCCc1ccncc1 | inconclusive: 23.7% |
| C[C@@H]1CCC[C@]2(O[C@@H](CCO)C[C@@H](O)[C@@H]2O)O1 | active: 34.5% |
| CN(C)/C(=N\S(=O)(=O)c1ccccc1)c1ccc([N+](=O)[O-])cc1 | inconclusive: 24.5% |
| COc1ccc(N2CC(NC(=O)N3CCc4ccccc43)CC2=O)cc1OC (stereo not drawn) | inconclusive: 21.4% |
| CC(C)(C)C(=O)N1NC(=Nc2ccccc2)SC1(C)C | inconclusive: 24.9% |
| COc1ccc(C(=O)COC(=O)c2ccc(-n3cnnn3)cc2)c(OC)c1 | inconclusive: 52.8% |

| Compound | CPE inhibition |
| --- | --- |
| COc1ccc(CNC(=O)CNC(=O)N2CC(=O)Nc3ccccc32)cc1 | inconclusive: 23.3% |
| COc1ccc2c3c([nH]c2c1)[C@H](CO)N(Cc1ccccn1)CC31CN(C(C)=O)C1 | active: 46.6% |
| CN(C)c1ccc(CCc2ccc(N)cc2)cc1 | active: 26.3% |
| CCOC(=O)N1CCN(Cc2nc(-c3cccs3)no2)CC1 | inconclusive: 23.5% |
| C[C@H](CO)N1C[C@H](C)[C@H](CN(C)C(=O)Nc2ccc(F)cc2)Oc2ncc(C3=CCCCC3)cc2C1=O | active: 32.5% |
| COc1cccc(S(=O)(=O)N(C)C[C@H]2OCc3cnnn3CCCC(=O)N([C@@H](C)CO)C[C@@H]2C)c1 | inconclusive: 50.8% |
| C[C@H](CO)N1C[C@H](C)[C@@H](CN(C)Cc2ccc3c(c2)OCO3)Oc2ccc(NC(=O)c3ccncc3)cc2CC1=O | active: 29% |
| COc1ccc(NC(=O)/C=C/c2cccc(C(F)(F)F)c2)cn1 | active: 23.4% |
| N#Cc1c(NC(=O)COC(=O)c2ccc(O)cc2O)sc2c1CCC2 | inconclusive: 41.5% |
| COc1ccccc1-c1cn(CC[C@@H]2CC[C@H](NC(=O)NC(C)C)[C@@H](CO)O2)nn1 | inactive: -2.01% |
| C[C@@H]1CN([C@H](C)CO)C(=O)c2cc(NC(=O)NC3CCCCC3)ccc2O[C@@H](C)CCCCO[C@H]1CN(C)C(=O)Nc1ccc2c(c1)OCO2 | active: 101% |
| Cc1noc(C)c1NC(=O)N(C)C[C@@H]1OCCCC[C@H](C)Oc2ccc(NC(=O)C3CCCCC3)cc2C(=O)N([C@H](C)CO)C[C@@H]1C | inconclusive: 57.8% |
| COCCN(C(=O)CSc1cc(C)c2ccccc2n1)c1c(N)n(CC(C)C)c(=O)[nH]c1=O | inconclusive: 20.7% |
| C[C@@H]1CN([C@@H](C)CO)C(=O)c2cc(NS(=O)(=O)c3ccc(Cl)cc3)ccc2O[C@@H](C)CCCCO[C@H]1CN(C)CC1CC1 | active: 84.1% |
| C[C@@H]1CCCCO[C@@H](CN(C)C(=O)Cc2ccccc2)[C@@H](C)CN([C@H](C)CO)C(=O)c2cc(NC(=O)CCCN(C)C)ccc2O1 | inconclusive: 60.4% |
| O=C1c2ccccc2/C(=C\c2ccc(Br)nc2)N1c1ccccc1 | active: 47.2% |
| CCOc1ccc(CNc2nnnn2C)cc1OC | inconclusive: 42.7% |
| C[C@@H]1CN([C@H](C)CO)C(=O)c2cc(NC(=O)Nc3cccc4ccccc34)ccc2O[C@H]1CN(C)S(=O)(=O)c1ccc(F)cc1 | inconclusive: 43.8% |
| CN(C)CCN=Cc1c(O)n(Cc2ccccc2)c(=O)c2ccccc12 | inconclusive: 25% |
| COc1ccccc1NC(=O)N1CCN(CCc2ccccc2)CC1 | inconclusive: 20.8% |
| C[C@@H]1CCCCO[C@@H](CN(C)C(=O)NC2CCCCC2)[C@@H](C)CN([C@H](C)CO)C(=O)c2cc(NS(C)(=O)=O)ccc2O1 | inconclusive: 21.2% |
| O=C(c1cnccn1)N1CC(=O)N2[C@H](CO)[C@@H](c3ccc(C#CC4CC4)cc3)[C@H]2C1 | inconclusive: 30.8% |
| CCCN(CC(=O)Nc1ccccc1C)C(=O)C1CCN(S(=O)(=O)c2ccc(C)c(C)c2)CC1 | active: 27% |
| C[C@@H]1CCCCO[C@H](CN(C)Cc2ccc(C(=O)O)cc2)[C@@H](C)CN([C@H](C)CO)C(=O)c2cc(NC(=O)Nc3ccc(F)cc3)ccc2O1 | inconclusive: 27.4% |
| O=C(C[C@H]1CC[C@H]2[C@@H](COC[C@@H](O)CN2C(=O)Nc2ccc(Cl)c(Cl)c2)O1)NCc1ccc(Cl)cc1 | active: 28.9% |

Entries above that contain a Cl atom, in the order listed:

| Compound | CPE inhibition |
| --- | --- |
| C[C@@H]1CN([C@H](C)CO)C(=O)c2cc(NS(=O)(=O)c3ccc(Cl)cc3)ccc2O[C@@H](C)CCCCO[C@@H]1CN(C)Cc1ccc2c(c1)OCO2 | inconclusive: 50.1% |
| N/C(Cc1ccc(Cl)c(Cl)c1)=N\OC(=O)c1ccc(Br)o1 | inconclusive: 51.4% |
| N=c1sccn1CC(=O)Nc1cc(S(=O)(=O)N2CCCCC2)ccc1Cl | inconclusive: 26.6% |
| CN(CC(=O)Nc1ccccc1Cl)C(=O)COc1cccc2c1OC(C)(C)C2 | inconclusive: 39.2% |
| C[C@@H]1CN([C@@H](C)CO)C(=O)c2cc(NS(=O)(=O)c3ccc(Cl)cc3)ccc2O[C@@H](C)CCCCO[C@H]1CN(C)CC1CC1 | active: 84.1% |
| O=C(C[C@H]1CC[C@H]2[C@@H](COC[C@@H](O)CN2C(=O)Nc2ccc(Cl)c(Cl)c2)O1)NCc1ccc(Cl)cc1 | active: 28.9% |

Later entries:

| Compound | CPE inhibition |
| --- | --- |
| CCCC(=O)N1C[C@H]2[C@@H](c3ccccc31)[C@@H](CO)N2C(=O)Nc1ccc(F)cc1 | active: 28.4% |
| C[C@@H]1CN([C@H](C)CO)C(=O)Cc2cc(NC(=O)Cc3ccccc3)ccc2O[C@H]1CN(C)C(=O)Nc1ccc(F)cc1 | inconclusive: 32.6% |
| COc1ccc2c(ccc[n+]2[O-])c1 | inactive: 11.3% |
| O=C(CCc1ccccc1)c1c(O)cc(O)cc1O | inconclusive: 64.6% |
| CCOC(=O)/C=C/c1ccc2oc3ccccc3c(=O)c2c1 | inactive: -3.33% |
| CN[C@H]1C[C@H]2c3[nH]c4c(-c5ccccc5)cccc4c3CCN2C(=O)[C@H]1[C@H](C)O | inconclusive: 60% |
| O=C(NCc1ccc(F)cc1)[C@H]1[C@H](CO)[C@H]2Cn3c(cccc3=O)[C@@H]1N2C(=O)Cc1ccccn1 | inconclusive: 33% |
| CSCc1ccc(C(=O)N2CCCC(Nc3ccc4c(c3)OCCO4)C2)o1 (stereo not drawn) | inconclusive: 24.1% |
| O=C(Nc1ccc(F)cc1)N1CCCCN2[C@H](CO)[C@H](c3ccc(-c4ccccc4F)cc3)[C@@H]2C1 | inactive: -1.4% |
| COc1cccc(-c2cccc(-c3nc(C(=O)O)cc4c3[C@H](CCO)N(S(=O)C(C)(C)C)C4)c2)c1 (stereo partly drawn) | inactive: -4.15% |
| Cc1ccc(-c2ccc(CN3C(C(C)C)C(=O)N(Cc4cn(CCC5OCCCO5)nn4)CCS3(=O)=O)cc2)cc1 (stereo not drawn) | active: 102% |
| Cc1cccc(S(=O)(=O)NC(=O)C2(C)CCN2C(=O)c2ccccc2CCc2ccccc2)c1 (stereo not drawn) | inconclusive: 61.1% |
| COc1cccc(NC(=O)CCN2C(=O)C3CC=CCC3C2=O)c1 (stereo not drawn) | active: 28.7% |
| CCOc1cccc(NC(=O)C2CC(=O)N(C)C2)c1 (stereo not drawn) | inconclusive: 44.6% |
| C[C@@H]1CN([C@@H](C)CO)C(=O)Cc2cc(NC(=O)CCCCCC(=O)Nc3ccccc3N)ccc2O[C@H]1CN(C)C | inconclusive: 62.2% |
| CCN(C(=O)COC(=O)c1cc2c(s1)CCCC2)c1c(N)n(Cc2ccccc2)c(=O)[nH]c1=O | inconclusive: 54.2% |
| CC(=O)NC(c1cc(Cl)c2cccnc2c1O)C(C)C (stereo not drawn) | active: 41.7% |
| Cc1cc(C)n(S(=O)(=O)c2ccc(F)cc2)n1 | inactive: -5.03% |
| Cc1noc(C)c1S(=O)(=O)N(C)C[C@@H]1Oc2ccc(NC(=O)C3CC3)cc2CC(=O)N([C@@H](C)CO)C[C@H]1C | inactive: -2.27% |
| O=C(C[C@H]1CC[C@@H]2[C@H](COC[C@@H](O)CN2CC2CC2)O1)NCc1ccc(Cl)cc1 | inconclusive: 38.3% |
| COc1ccc2c(CC(=O)NNC(=O)c3ccc(C)cc3)coc2c1 | inactive: -4.16% |
| O=C(CCN1CCCCC1)NCC[C@H]1CC[C@@H](NC(=O)C2CCOCC2)[C@H](CO)O1 | inconclusive: 30.4% |
| CC1CCC(NC(=O)C2CCN(S(=O)(=O)c3ccc4nc5c(c(C(=O)O)c4c3)CC(C)CC5)CC2)CC1 (stereo not drawn) | inconclusive: 20.5% |
